Results published in paper PMC7418333.
No constants are given. Whether binding was seen depends on the method and setting. Binding seen in cells or lysates may run through a third protein. Some results given as binding are weak or reduced against the parent protein; the word gives no strength. For some of these results: Tags and fused reporters may be left off the sequences shown.

T1: CTCF (mouse (endogenous in mESCs v6.5)) (UniProt Q61164)
T1 sequence: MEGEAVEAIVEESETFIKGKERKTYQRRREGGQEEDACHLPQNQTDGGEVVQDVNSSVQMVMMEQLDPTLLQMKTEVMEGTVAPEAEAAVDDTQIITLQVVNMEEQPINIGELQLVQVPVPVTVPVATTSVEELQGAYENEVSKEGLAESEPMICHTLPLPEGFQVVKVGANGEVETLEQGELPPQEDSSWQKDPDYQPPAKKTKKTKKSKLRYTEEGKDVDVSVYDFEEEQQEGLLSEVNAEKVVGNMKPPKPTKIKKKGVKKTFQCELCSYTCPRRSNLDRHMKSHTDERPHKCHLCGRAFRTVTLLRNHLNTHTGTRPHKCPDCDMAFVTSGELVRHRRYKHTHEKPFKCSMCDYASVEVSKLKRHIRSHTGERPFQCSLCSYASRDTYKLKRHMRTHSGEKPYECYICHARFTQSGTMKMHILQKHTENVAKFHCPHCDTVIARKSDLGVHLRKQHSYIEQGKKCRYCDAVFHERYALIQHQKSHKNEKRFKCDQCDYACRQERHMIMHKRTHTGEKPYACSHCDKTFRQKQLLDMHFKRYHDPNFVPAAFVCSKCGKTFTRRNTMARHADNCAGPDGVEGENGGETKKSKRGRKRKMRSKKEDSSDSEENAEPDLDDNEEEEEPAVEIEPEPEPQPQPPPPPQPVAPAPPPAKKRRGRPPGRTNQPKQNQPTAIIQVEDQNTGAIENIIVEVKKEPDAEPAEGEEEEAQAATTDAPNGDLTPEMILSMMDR

T2: STAG1 (mouse (endogenous in mESCs v6.5)) (UniProt Q9D3E6)
T2 sequence: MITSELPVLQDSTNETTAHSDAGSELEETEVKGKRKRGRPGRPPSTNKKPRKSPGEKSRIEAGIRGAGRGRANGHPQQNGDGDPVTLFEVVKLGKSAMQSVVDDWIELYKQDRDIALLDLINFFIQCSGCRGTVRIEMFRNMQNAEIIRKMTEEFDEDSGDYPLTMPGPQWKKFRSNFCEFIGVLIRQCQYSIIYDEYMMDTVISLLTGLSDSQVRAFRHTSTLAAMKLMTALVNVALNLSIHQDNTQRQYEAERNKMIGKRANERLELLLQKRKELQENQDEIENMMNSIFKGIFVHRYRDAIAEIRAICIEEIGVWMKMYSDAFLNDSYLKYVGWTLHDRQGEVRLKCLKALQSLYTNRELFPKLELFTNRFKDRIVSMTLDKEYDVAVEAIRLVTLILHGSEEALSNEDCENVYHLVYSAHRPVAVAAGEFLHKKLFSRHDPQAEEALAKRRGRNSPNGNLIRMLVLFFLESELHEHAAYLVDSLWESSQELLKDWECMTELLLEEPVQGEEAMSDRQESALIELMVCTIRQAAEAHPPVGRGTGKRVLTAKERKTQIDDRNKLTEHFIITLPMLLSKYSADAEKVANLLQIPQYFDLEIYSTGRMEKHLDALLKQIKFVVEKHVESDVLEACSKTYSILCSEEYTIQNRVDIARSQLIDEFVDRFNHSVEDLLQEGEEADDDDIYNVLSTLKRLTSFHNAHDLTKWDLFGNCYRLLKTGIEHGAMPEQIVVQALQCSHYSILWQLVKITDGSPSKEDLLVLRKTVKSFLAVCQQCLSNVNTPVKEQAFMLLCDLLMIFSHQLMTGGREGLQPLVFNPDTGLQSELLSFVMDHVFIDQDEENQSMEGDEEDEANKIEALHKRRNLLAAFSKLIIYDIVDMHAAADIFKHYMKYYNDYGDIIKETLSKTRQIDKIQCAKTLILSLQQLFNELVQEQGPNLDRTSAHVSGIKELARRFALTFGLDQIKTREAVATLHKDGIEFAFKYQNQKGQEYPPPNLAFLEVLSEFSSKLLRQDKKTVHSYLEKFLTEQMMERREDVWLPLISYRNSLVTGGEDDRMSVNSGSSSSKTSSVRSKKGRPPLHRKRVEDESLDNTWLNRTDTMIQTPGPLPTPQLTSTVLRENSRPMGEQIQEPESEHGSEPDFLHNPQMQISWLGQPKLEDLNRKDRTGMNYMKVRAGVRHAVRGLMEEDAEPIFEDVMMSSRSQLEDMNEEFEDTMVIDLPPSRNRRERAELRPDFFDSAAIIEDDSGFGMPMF

T3: STAG2 (mouse (endogenous in mESCs v6.5)) (UniProt O35638)
T3 sequence: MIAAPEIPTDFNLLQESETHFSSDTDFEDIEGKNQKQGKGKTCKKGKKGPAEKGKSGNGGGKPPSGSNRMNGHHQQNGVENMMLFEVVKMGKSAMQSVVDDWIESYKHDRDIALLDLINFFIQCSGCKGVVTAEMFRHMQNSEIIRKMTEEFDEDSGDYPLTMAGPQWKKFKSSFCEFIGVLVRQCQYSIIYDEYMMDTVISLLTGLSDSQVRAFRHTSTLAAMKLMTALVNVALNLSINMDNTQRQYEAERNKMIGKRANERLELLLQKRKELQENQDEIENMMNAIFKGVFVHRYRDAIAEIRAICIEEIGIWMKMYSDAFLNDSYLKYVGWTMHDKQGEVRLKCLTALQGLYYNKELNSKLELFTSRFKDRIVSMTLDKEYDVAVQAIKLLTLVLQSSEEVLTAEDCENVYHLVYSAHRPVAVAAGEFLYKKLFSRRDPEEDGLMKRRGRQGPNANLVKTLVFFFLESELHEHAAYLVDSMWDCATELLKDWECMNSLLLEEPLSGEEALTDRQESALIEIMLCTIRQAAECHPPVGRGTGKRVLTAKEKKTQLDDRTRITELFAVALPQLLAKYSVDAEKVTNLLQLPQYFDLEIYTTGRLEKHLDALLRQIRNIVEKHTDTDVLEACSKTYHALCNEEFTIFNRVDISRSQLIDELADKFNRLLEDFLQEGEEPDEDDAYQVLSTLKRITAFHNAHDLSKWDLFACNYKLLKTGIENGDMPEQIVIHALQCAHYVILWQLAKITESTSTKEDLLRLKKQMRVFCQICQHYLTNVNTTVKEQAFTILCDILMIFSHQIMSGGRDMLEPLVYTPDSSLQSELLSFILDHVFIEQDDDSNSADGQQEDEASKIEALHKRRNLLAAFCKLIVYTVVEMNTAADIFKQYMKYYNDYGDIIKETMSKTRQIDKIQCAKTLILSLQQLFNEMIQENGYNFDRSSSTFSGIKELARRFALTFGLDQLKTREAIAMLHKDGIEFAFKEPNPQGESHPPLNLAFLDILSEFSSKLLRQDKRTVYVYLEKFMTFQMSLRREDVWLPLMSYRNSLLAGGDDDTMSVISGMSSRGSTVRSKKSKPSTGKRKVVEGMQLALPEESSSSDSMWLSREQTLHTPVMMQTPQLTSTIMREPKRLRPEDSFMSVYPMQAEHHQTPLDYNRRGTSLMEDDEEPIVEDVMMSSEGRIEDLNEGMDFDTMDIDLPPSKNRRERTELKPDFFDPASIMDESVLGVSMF

B1: SMC1A (protein, UniProt Q9CU62 1-1233)
chain: MGFLKLIEIENFKSYKGRQIIGPFQRFTAIIGPNGSGKSNLMDAISFVLGEKTSNLRVKTLRDLIHGAPVGKPAANRAFVSMVYSEEGAEDRTFARVIVGGSSEYKINNKVVQLHEYSEELEKLGILIKARNFLVFQGAVESIAMKNPKERTALFEEISRSGELAQEYDKRKKEMVKAEEDTQFNYHRKKNIAAERKEAKQEKEEADRYQRLKDEVVRAQVQLQLFKLYHNEVEIEKLNKELASKNKEIEKDKKRMDKVEDELKEKKKELGKMMREQQQIEKEIKEKDSELNQKRPQYIKAKENTSHKIKKLEAAKKSLQNAQKHYKKRKGDMDELEKEMLSVEKARQEFEERMEEESQSQGRDLTLEENQVKKYHRLKEEASKRAATLAQELEKFNRDQKADQDRLDLEERKKVETEAKIKQKLREIEENQKRIEKLEEYITTSKQSLEEQKKLEGELTEEVEMAKRRIDEINKELNQVMEQLGDARIDRQESSRQQRKAEIMESIKRLYPGSVYGRLIDLCQPTQKKYQIAVTKVLGKNMDAIIVDSEKTGRDCIQYIKEQRGEPETFLPLDYLEVKPTDEKLRELKGAKLVIDVIRYEPPHIKKALQYACGNALVCDNVEDARRIAFGGHQRHKTVALDGTLFQKSGVISGGASDLKAKARRWDEKAVDKLKEKKERLTEELKEQMKAKRKEAELRQVQSQAHGLQMRLKYSQSDLEQTKTRHLALNLQEKSKLESELANFGPRINDIKRIIQSREREMKDLKEKMNQVEDEVFEEFCREIGVRNIREFEEEKVKRQNEIAKKRLEFENQKTRLGIQLDFEKNQLKEDQDKVHMWEQTVKKDENEIEKLKKEEQRHMKIIDETMAQLQDLKNQHLAKKSEVNDKNHEMEEIRKKLGGANKEMTHLQKEVTAIETKLEQKRSDRHNLLQACKMQDIKLPLSKGTMDDISQEEGSSQGEESVSGSQRTSSIYAREALIEIDYGDLCEDLKDAQAEEEIKQEMNTLQQKLNEQQSVLQRIAAPNMKAMEKLESVRDKFQETSDEFEAARKRAKKAKQAFEQIKKERFDRFNACFESVATNIDEIYKALSRNSSAQAFLGPENPEEPYLDGINYNCVAPGKRFRPMDNLSGGEKTVAALALLFAIHSYKPAPFFVLDEIDAALDNTNIGKVANYIKEQSTCNFQAIVISLKEEFYTKAESLIGVYPEQGDCVISKVLTFDLTKYPDANPNPNEQ
B2: STAG1 (protein, UniProt Q9D3E6 1-1258)
chain: T2 sequence

What was measured:
[1] = target: T1, CTCF (mouse (endogenous in mESCs v6.5)); test: co-IP; CTCF IP then western blot for cohesin, from mESC nuclear lysates digested with Benzonase; four conditions: wild-type siGLO, wild-type siStag1, Stag2-/- siGLO, Stag2-/- siStag1 (48 h siRNA)
[2] = target: T2, STAG1 (mouse (endogenous in mESCs v6.5)); test: co-IP; endogenous proteins from mESC nuclear lysates, native conditions, nuclei digested with 10U Benzonase at 37 C for 15 min, 400 ug protein per IP, low stringency buffer, Protein G Dynabeads; western blot
[3] = target: T3, STAG2 (mouse (endogenous in mESCs v6.5)); test: as above

Row | Molecule | binding [1] | binding [2] | binding [3]
1 | cohesin (core cohesin ring) (from UniProt Q9CU62 1-1233; Q9CW03 1-1217; Q61550 1-635) (complex) | binds |  | 
2 | B1 |  | binds | binds
3 | B2 |  |  | no binding
